Experimental data from PubChem BioAssay AID1259415 (National Center for Advancing Translational Sciences (NCATS), 2018).
“And” between values parts separate entries of the source, which are not always exact repeats. Equal entries are not always repeated. Out of some 410,000 compounds screened, about 18,000 (4.4%) were called active. Inconclusive results, whose numbers are uncertain, are shown with a selection of clear calls. Rule as the data show it: active = activity change below about -60%; inconclusive = no clear call, values can overlap the other calls; inactive = above about -39%.

assay: qHTS Assay for inhibitors of the human cytomegalovirus (HCMV); conditions: HFF cells, HCMV-luciferase reporter, 72 h; at 57.5 µM; hits give low values
Summary of the method: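 After 16 h attachment at 37C, HFF cells received test compound and HCMV-luciferase (1 PFU/cell); reporter luminescence read 72 h later, data normalized against buffer-only and known inhibitor Salinomycin.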
% is scaled to controls: 0 for no effect and ±100 for the full control effect.

| Compound | activity change, negative = inhibition |
| --- | --- |
| Cc1cccc(N(C)S(=O)(=O)c2c[nH]c3ccc([N+](=O)[O-])cc23)c1 | inconclusive: -44.8% |
| CCOc1ccc(N2C(=O)CC(=O)NC2=O)cc1 | inactive: 58.1% |
| Cc1c(Cl)cccc1NC(=O)C(=O)NCC(c1cccnc1)N1CCN(c2ccccc2)CC1 (stereo not drawn) | inactive: 1.19% |
| Cc1cc(=O)n(CC(=O)Nc2cccc([N+](=O)[O-])c2)c(-n2nc(C)cc2C)n1 | inconclusive: 0% |
| COc1ccc(-c2cc(C(F)(F)F)nc(SCCC(=O)Nc3cccc(O)c3)n2)cc1 | inconclusive: -51.4% |
| Cc1cc(C(=O)NNC(=O)/C=C/c2ccc(F)cc2)c(C)o1 | inactive: -16.5% |
| CC1CCN(C(=O)c2[nH]cnc2C(=O)Nc2ccc(Cl)cc2)CC1 | inconclusive: -59.5% |
| CCCNC(=O)C1CCC(Cn2c(=O)c3sccc3n(CC(=O)Nc3ccccc3C)c2=O)CC1 (stereo not drawn) | inactive: 4.14% |
| Cc1ccc(C2NC(=O)c3n[nH]c(C(C)C)c32)cc1 (stereo not drawn) | inconclusive: -42.3% |
| CC12CCC(C(=O)Nc3cc(Cl)ccc3Cl)(C(Br)C1=O)C2(C)C (stereo not drawn) | inconclusive: -55.4% |
| COCCN(CCOC)S(=O)(=O)c1ccc(C(=O)Nc2ccncc2)cc1 | inconclusive: -58.9% |
| Cc1ccc(S(=O)(=O)NCc2ccc(C(=O)N3CCN(Cc4ccccc4)CC3)cc2)cc1 | active: -92.9% |
| CCc1nnc(N/N=C/c2ccccc2F)n1N | active: -80% |
| CCNC(=S)N(Cc1cc2cc(C)c(C)cc2[nH]c1=O)C1CCCC1 | inconclusive: -40.6% |
| COc1cc(CNc2ccc3[nH]c(=O)[nH]c3c2)cc(Br)c1OCc1ccc(F)cc1 | inconclusive: -41.1% |
| CCN(C(=O)c1cc(S(=O)(=O)N2CCOCC2)cn1C)c1cccc(C)c1 | inconclusive: -43.9% |
| COc1ccccc1CNC(=O)c1cc2cc(C)ccc2n1C | inconclusive: -41.1% |
| C#CCOCCOCCOCCNc1nc(N2CCN(C(=O)CCCCCCCCCCNC(=O)[C@@H](CCSC)n3cc(CCO)nn3)CC2)nc(N2CCN(C(=O)CCCCCCCCCCNC(=O)[C@H](CCSC)n3cc(CCO)nn3)CC2)n1 | inconclusive: -47.8% |
| COc1cc(NC(=O)c2ccco2)c(OC)cc1NC(=O)Nc1ccc(Cl)cc1 | inconclusive: -40.5% |
| O=C(Nc1ccc(-n2cccc2)cc1)C1=COC2=NC(=O)N(Cc3ccccc3)CCN12 | active: -87.1% |
| Cc1ccc(C(=O)N/N=C/c2ccc(-c3cccc(C(F)(F)F)c3)o2)cn1 | inconclusive: -40.6% |

| Compound | activity change, negative = inhibition |
| --- | --- |
| CCN1CCN(c2c(Cl)cccc2NC(=O)c2ccco2)CC1 | inactive: -14.9% |
| OC(COc1ccc(C2C=CCC2)cc1)CN1CCCCC1 (stereo not drawn) | inactive: -30.7% |
| CCCN1CCN(c2ncnc3sc(C(=O)Nc4cccc(Cl)c4C)c(C)c23)CC1 | inconclusive: -40.2% |
| CC(C)NC(=O)NC(=O)COC(=O)c1c2c(nc3ccccc13)CCC2 | inconclusive: -51.7% |
| CC(=O)c1cccc(S(=O)(=O)N2CCCC(c3nc4c(nnn4Cc4cccc(Cl)c4)c(=O)[nH]3)C2)c1 (stereo not drawn) | inactive: 29.6% |
| COc1cccc(CC(=O)NCC2(N3CCCCC3)CCCCC2)c1 | inconclusive: -46.6% |
| COc1cccc(N2CCN(C(=O)C3CCCN(c4ncnc5c4nc4n5CCCCC4)C3)CC2)c1 (stereo not drawn) | inconclusive: -54.6% |
| CC(C)Cn1c(N)c(C(=O)CSc2nncs2)c(=O)n(C)c1=O | inconclusive: -43.8% |
| O=C(NCc1ccc(Cl)cc1)c1cc(-c2cccs2)on1 | inactive: -37.7% |
| O=C1CCc2ccccc2N1Cc1ccccc1 | inconclusive: -48.7% |
| O=C(OCC(=O)c1ccc([N+](=O)[O-])cc1)/C(=C/c1ccc(Cl)cc1)NC(=O)c1ccccc1 | active: -64.8% |
| COc1ccc(CCN2CC(O)=C(c3nc4ccccc4c(=O)[nH]3)C2=N)cc1OC | inactive: -20.3% |
| CCCCSc1nc(N)nc2c1ncn2C1OC(CO)C(O)C1O (stereo not drawn) | inactive: -15.2% |
| C/C(=N/NC(=O)CNC(=O)c1cccs1)c1ccc(Cl)cc1 | inconclusive: -48.9% |
| COC(=O)c1ccc(NC(=O)C2CC(=O)N(c3cc(C)ccc3C)C2)cc1 (stereo not drawn) | inconclusive: -43.6% |
| COc1ccc(/C=N/n2c(-c3cc(C)[nH]n3)n[nH]c2=S)cc1 | inconclusive: -57.3% |
| CN(C(=O)c1ccc2c(c1)N(Cc1ccccc1F)C(=O)c1ccccc1S2(=O)=O)C1CCCCC1 | inconclusive: -56.5% |
| COc1ccc(N2CCN(C(=O)COC(=O)c3cccc(OC)c3O)CC2)cc1 | inconclusive: -44.2% |
| Cn1/c(=N\NC(=O)C2CCCCC2)sc2ccccc21 | inconclusive: -43.2% |
| O=C(Nc1cc(Cl)ccc1Cl)c1cc(S(=O)(=O)N2CCCc3ccccc32)ccc1F | inconclusive: -53% |
| CC(C)NC(=O)C1(C)CCCCN1Cc1ccc(OCc2ccccc2)cc1 (stereo not drawn) | inconclusive: -51.9% |

An excerpt from above in order of molecular weight, low to high.

| Compound | activity change, negative = inhibition |
| --- | --- |
| O=C1CCc2ccccc2N1Cc1ccccc1 | inconclusive: -48.7% |
| Cc1ccc(C2NC(=O)c3n[nH]c(C(C)C)c32)cc1 (stereo not drawn) | inconclusive: -42.3% |
| CCCN1CCN(c2ncnc3sc(C(=O)Nc4cccc(Cl)c4C)c(C)c23)CC1 | inconclusive: -40.2% |
| O=C(Nc1cc(Cl)ccc1Cl)c1cc(S(=O)(=O)N2CCCc3ccccc32)ccc1F | inconclusive: -53% |

Following part.

| Compound | activity change, negative = inhibition |
| --- | --- |
| COc1ccccc1CN1C[C@@H]2C[C@@H](c3[nH]c4ccc(C)cc4c3C)N3CCC[C@@]23C1=O | inactive: 11.1% |
| Cc1ccc(NS(=O)(=O)c2cc(Br)cnc2N)cc1C | inconclusive: -42.7% |
| O=C(Nc1ccn(Cc2ccccc2F)n1)c1ccc(COc2ccc(Br)cc2)cc1 | active: -103% |
| O=C(O)CCSc1ncnc2sc(-c3ccccc3)cc12 | inconclusive: -56.7% |
| CCN(C(=O)CSc1nnc(-c2ccccc2)o1)c1c(N)n(Cc2ccccc2)c(=O)[nH]c1=O | inconclusive: -48.8% |
| Cc1ccc(C(=O)Cc2ccccc2)c(O)c1 | inconclusive: -42.9% |
| COc1ccc(OC)c(C(c2nnnn2CC2CCCO2)N2CCN(C3CCCC3)CC2)c1 (stereo not drawn) | inactive: -6.5% |
| CCOc1ccc(NC(=O)Cc2ccc(-n3c(C)nc4cccnc43)cc2)cc1 | inconclusive: 0% |
| Cc1cc(C)c2c(N)c(C(=O)NC3CC3)sc2n1 | inactive: 2.75% |
| O=C(c1nc(-c2ccccc2)n(-c2ccccc2)n1)N1CCN(S(=O)(=O)c2ccccc2)CC1 | inconclusive: -46.1% |
| COc1ccc(-c2c3c(nc4sc(C(=O)Nc5cc(C)on5)c(N)c24)CCC3)cc1 | inconclusive: -56.7% |
| Cc1ccccc1NC(=O)c1c(NC(=O)C(F)(F)F)sc2c1CCCCC2 | active: -102% |
| CN(Cc1ccccc1)Cc1ccccc1 | inactive: -12.5% |
| C/C(=N\NC(=S)NC(C)C)c1ccco1 | inconclusive: -49.9% |
| CC(C(O)c1ccc(O)cc1)N1CCC(Cc2ccccc2)CC1 (stereo not drawn) | inconclusive: -45% |
| COc1cc(NC(=O)c2nn(-c3ccc(F)cc3)c(=O)n(C)c2=O)cc(OC)c1OC | inactive: 22.8% |
| O=C(CCCN1C(=O)/C(=C\c2cccs2)SC1=S)Nc1ccc(O)cc1 | active: -99.1% |
| CCOc1ccc(C(=O)Nc2c3c(nn2-c2cccc(C)c2C)CS(=O)C3)cc1 (stereo not drawn) | inconclusive: -49.5% |
| Cc1cccc(-c2nc(=S)c3c(o2)CCCC3)c1 | inactive: 54.2% |
| NNC(=O)c1[nH]c2ccc(Cl)cc2c1-c1ccccc1 | active: -96.9% |
| COc1ccc(OC)c(S(=O)(=O)Nc2cccc(-c3ccc(N4CCCCCC4)nn3)c2)c1 | inactive: -28.3% and inactive: 6.41% |

| Compound | activity change, negative = inhibition |
| --- | --- |
| Cc1cc(C)cc(NC(=O)Cn2c(=O)oc3cc(S(=O)(=O)N4CC(C)CC(C)C4)ccc32)c1 (stereo not drawn) | inconclusive: -58.3% |
| Cc1ccc(S(=O)(=O)NC(C)(C)CN2CCC(Cc3ccccc3)CC2)cc1 | inactive: -26.3% |
| CC(=O)c1ccc(S(=O)(=O)NCC(=O)N2CCN(C/C=C/c3ccccc3)CC2)cc1 | inactive: -10.9% |
| CCOC(=O)c1c(C)c(C(=O)NCc2ccc(Cl)cc2)c(C)n1CC | inconclusive: -53.6% |
| O=C(Nc1ccc(Cl)cc1)c1ccc(OC2CSC2)cc1 | inactive: -6.22% |
| Cn1c(-c2ccc(S(=O)(=O)N3CCCC3)cc2)csc1=Nc1ccc(Cl)c(Cl)c1 | active: -61.9% |
| CCOc1ccccc1NC(=O)CSc1nnc2ccc(-c3ccncc3)nn12 | inconclusive: -41.9% |
| CCOC(=O)C1(Cc2cccc(Cl)c2)CCCN(C(=O)c2ccc(C)nc2)C1 (stereo not drawn) | inconclusive: -45.6% |
| Cc1ccc(CNC(=O)c2cc3c(s2)-c2ccc(Cl)cc2SC3)cc1 | inactive: -5.48% |
| O=C(CSc1nnc(COc2ccc(Cl)cc2)o1)N1CCOCC1 | inconclusive: -46.4% |
| CCCNC(=O)C1(C)CCCN(Cc2cccc(C#N)c2)C1 (stereo not drawn) | inconclusive: -52.6% |
| COc1ccc(NS(=O)(=O)c2cccc(C(=O)NCC(c3ccc(OC)cc3)N3CCCC3)c2)cc1 (stereo not drawn) | inactive: -15.8% |
| CCCCN(CCCNC(=O)CN1C(=O)COc2ccccc21)c1ccccc1 | inconclusive: -48.4% |
| O=C(CN1CCN(S(=O)(=O)c2ccc(Br)cc2)CC1)Nc1ccccc1C(=O)c1ccccc1 | inconclusive: -48.6% |
| Cc1ccc(-c2nc3ncccc3o2)cc1NC(=O)c1ccccc1Br | inconclusive: -47.3% |
| C[C@@H]1CN([C@H](C)CO)C(=O)c2c(c3ccccc3n2C)-c2ccccc2CO[C@H]1CN(C)Cc1ccccc1 | inactive: -11.2% |
| COc1cccc(CNC(=O)CN2C(=O)COc3ccc(S(=O)(=O)N4CCCCCC4)cc32)c1 | inconclusive: -52.1% and inconclusive: -45.9% |
| CC(=NNC(=S)N1CCN(c2ccccn2)CC1)c1ccccn1 | inactive: -13.8% |
| CCCCCCN(C(=O)CCl)c1ccccc1 | active: -99.5% |
| Cc1cc(C)nc(NC(=O)c2ccc(Cl)cc2)n1 | inconclusive: -45.4% |
